Experimental data: PubChem BioAssay AID1508597 (Cure First, 2020)
This is an unselected part of the about 2,100 reagents, under one of the conditions tested. 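Calls flag viability under 80% in either arm, not effects specific to rucaparib; the reference for percent is not stated.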 Unmarked entries are inactive. Some reagents were tested in more than one well and are listed for each. No sequences are given here. Not stated in the record: the 100% reference.

Test: 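Survival screen with siRNA in ovarian cancer cells derived from patients, with or without rucaparib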 (primary screen)
System: human ovarian carcinoma lines grown from tumours: OCI-P5x (papillary serous) and OCI-C5x (clear cell)
Reagent: siRNA pool against human genes, 1.25 pmol siRNA per well
Timing: 72 h or 96 h, depending on the cell culture
Conditions: rucaparib 20 µM (about IC30) or vehicle, present until read-out
Rucaparib or vehicle: Vehicle
Cell line: OCI-P5x (serous)
Measurement: 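ATP luminescence measured at 72 or 96 h according to the culture, then normalised and expressed as percent viability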
Reading the numbers: viability, normalised: higher = more viable cells remaining
Hit rule: 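Active when normalised viability falls below 80 percent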
Meaning of the calls: active = viability under 80%; inactive = viability 80% or more

gene symbol	PubChem SID	technical replicate	viability, normalised (%)
CTCF	SID405528152	1	55.6 (active)
CTCF	SID405528152	2	51.4 (active)
CTCF	SID405528152	3	55.9 (active)
FOXA1	SID405526792	1	59.8 (active)
FOXA1	SID405526792	2	39.2 (active)
FOXA1	SID405526792	3	68.9 (active)
HDAC7	SID405526845	1	69.3 (active)
HDAC7	SID405526845	2	87.1
HDAC7	SID405526845	3	78.8 (active)
EDF1	SID405526741	1	64.6 (active)
EDF1	SID405526741	2	63.9 (active)
EDF1	SID405526741	3	96.2
RDM1	SID405528422	1	45.6 (active)
RDM1	SID405528422	2	57.9 (active)
RDM1	SID405528422	3	52.9 (active)
SNRNP200	SID405526318	1	28.3 (active)
SNRNP200	SID405526318	1	32.3 (active)
SNRNP200	SID405526318	2	31 (active)
SNRNP200	SID405526318	2	35.4 (active)
SNRNP200	SID405526318	3	36 (active)
SNRNP200	SID405526318	3	32.8 (active)
AKT3	SID405527451	1	99.3
AKT3	SID405527451	2	106
AKT3	SID405527451	3	101
CKMT2	SID405528561	1	91.5
CKMT2	SID405528561	2	92.1
CKMT2	SID405528561	3	84.4
NSD3	SID405526627	1	52.1 (active)
NSD3	SID405526627	2	43.5 (active)
NSD3	SID405526627	3	42.8 (active)
UCKL1	SID405527654	1	56.8 (active)
UCKL1	SID405527654	2	42.3 (active)
UCKL1	SID405527654	3	50.5 (active)
DHX16	SID405528210	1	56.6 (active)
DHX16	SID405528210	2	67.3 (active)
DHX16	SID405528210	3	61.6 (active)
HMGN3	SID405526880	1	95.9
HMGN3	SID405526880	2	88.7
HMGN3	SID405526880	3	93.5
ARL8B	SID405527983	1	64.1 (active)
ARL8B	SID405527983	2	62.6 (active)
ARL8B	SID405527983	3	69.3 (active)
BRD2	SID405527541	1	75.5 (active)
BRD2	SID405527541	1	60.2 (active)
BRD2	SID405527541	2	60.3 (active)
BRD2	SID405527541	2	88.5
BRD2	SID405527541	3	51.9 (active)
BRD2	SID405527541	3	78.1 (active)
MARVELD3	SID405527436	1	47.4 (active)
MARVELD3	SID405527436	2	79.4 (active)
MARVELD3	SID405527436	3	74.6 (active)
LMTK1	SID405527387	1	71.9 (active)
LMTK1	SID405527387	2	78.7 (active)
LMTK1	SID405527387	3	75.6 (active)
ELAC1	SID405526665	1	87.5
ELAC1	SID405526665	2	69.1 (active)
ELAC1	SID405526665	3	84.1

Entries listed so far whose gene name begins with B or b (6):
gene symbol	PubChem SID	technical replicate	viability, normalised (%)
BRD2	SID405527541	1	75.5 (active)
BRD2	SID405527541	1	60.2 (active)
BRD2	SID405527541	2	60.3 (active)
BRD2	SID405527541	2	88.5
BRD2	SID405527541	3	51.9 (active)
BRD2	SID405527541	3	78.1 (active)
